For the series, the system named is MRSA and borderline S. aureus strains. Description: Screening of MRSA and borderline S. aureus strains on chromogenic agar supplemented with a β-lactam. To be noted: for Sensitivity: 35-37 °C, 24 hours. In kind it is cell-based, Staphylococcus aureus.
The mark [1] stands for this setting: oxacillin at 4 ug/ml in chromogenic agar, 22 strains.

`CC(C)(O/N=C(\C(=O)N[C@@H]1C(=O)N2C(C(=O)[O-])=C(C[n+]3ccccc3)CS[C@H]12)c1csc(N)n1)C(=O)O` [CAZ, ceftazidime] had a Sensitivity (ceftazidime at 16 ug/ml in chromogenic agar, 21 strains) of 33.3 percentage.

Consider `Cc1onc(-c2ccccc2)c1C(=O)N[C@@H]1C(=O)N2[C@@H]1SC(C)(C)[C@@H]2C(=O)O` [OX, oxacillin], for which, under setting [1], the Accuracy came to 27.3 percentage, the “Negative Predictive Value” was 23.8 percentage, the “Positive Predictive Value” is reported as 100 percentage and the Specificity turned out to be 100 percentage. Under setting [1], the Sensitivity was 5.9 percentage.

The values are drawn from patent US20040235012A1, “Method of detecting antibiotic resistance in microorganisms” (priority 2003, published 2004).
